Laboratory results published in publication PMC6769652.
No constants are given. Whether binding was seen depends on the method and setting. In cells and extracts the contact can be indirect. Some results given as binding are weak or reduced against the parent protein; the word gives no strength. Where a sequence is shown, tags or fusion partners need not be part of it.

Columns and labels:
[1] = biological target: T1, EGFP-WBSCR22 (human) (UniProt O43709); test: co-IP; U2OS cells transfected with EGFP fusions, treated with 5 µM MG132 for 16 h; GFP-Trap_M magnetic beads; blot with anti-EGFP and anti-TRMT112
T1 sequence: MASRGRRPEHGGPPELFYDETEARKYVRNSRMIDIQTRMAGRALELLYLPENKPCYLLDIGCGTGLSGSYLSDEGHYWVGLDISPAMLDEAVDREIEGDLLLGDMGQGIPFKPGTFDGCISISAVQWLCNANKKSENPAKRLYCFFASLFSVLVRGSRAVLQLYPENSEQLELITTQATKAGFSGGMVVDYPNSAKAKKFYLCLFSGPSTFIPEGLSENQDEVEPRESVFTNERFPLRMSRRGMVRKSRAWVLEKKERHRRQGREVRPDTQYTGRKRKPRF

[2] = biological target: T1, EGFP-WBSCR22 (human); test: co-IP; HeLa cells transfected with EGFP fusions, treated with 0 µM or 5 µM MG132 for 16 h; GFP-Trap_M magnetic beads; blot with anti-EGFP, anti-TRMT112 and anti-α-tubulin

- binding [1]: binds
- binding [2]: binds
Substance: TRMT112 protein (from UniProt Q9UI30 1-125)
